Measured values: PMC9402430, “Cryo-EM structure of an active bacterial TIR–STING filament complex” (Nature, 2022)
Results are given in words; binding and its absence hold for the method and conditions named.

Molecular target: SfSTING V280D (Sphingobacterium faecium)
Test: native gel or EMSA; 20 μM protein with about 1 μM 32P-labelled c-di-GMP, 5 mM Mg(OAc)2, 50 mM Tris-HCl pH 7.5, 50 mM KCl, 5 min at 25 °C, 6% nondenaturing polyacrylamide gel; 'probable filament band' read as dimers to filament; both purified

binding: no binding (tested: 20 μM)
B1: SfSTING V280D (enzyme, UniProt A0A2T5Y4G4 1-323)
chain: MKKRIFIGSSSEQLTILNEIVDLLGDDVECIPWTDAFALNKSGLDSLIKQTRLADYSILIATKDDLTKQRGESLTKPRDNVVFEFGLFLGAAGPEKCYLIAEEDTDLPTDLDGITVAKFTRNSGQYNSLDKIVESIRTHLVKIAEMSQLGLLPSTALAIGYYNSFIKRVCEEIHGSECVELEGKKIKVKSFRVDVVIPETLDDNGVGNFTTLYNKRYGLSKATTCTNPALLGTRGFPFHFKVDPPDANQESPVDIHLLDIPSTLSTIVESLKLYLPSNQDGQDFDMDYLEMRELENFAKVLKYLIGRNAATKGYVNVLTNVKL
